# Test results from patent US12427114B2, “Orodispersible dosage unit containing an estetrol component” (ESTETRA SRL, priority 2015, dated 2025).
# The name of at least one read-out is uncertain.
# Assay: Randomized, open-label, two-period, cross-over pharmacokinetic study, sublingual versus oral 10 mg estetrol tablet
# Assay type: in vivo, human
# Details: healthy female volunteers, fasting
# Description: A randomized, open-label, two-period, cross-over, pharmacokinetic study is conducted to compare sublingual bioavailability of 10 mg estetrol administered in one 80 mg tablet (having the same composition as the tablets described in Example 4, Formulation E) with oral availability of estetrol contained in a 83 mg tablet containing 10 mg estetrol. These tablets are administered sublingually and orally to healthy female volunteers under fasting conditions.
# Ten healthy female subjects are selected on the basis of the following criteria: age of 45-65 years (inclusive), nonsmokers or past smokers (at least 6 months before dosing), body-mass index (BMI)=18.5 to 30 kg/m^2 (inclusive at the time of the screening).
# At the start of the first and the second period of the study, between 07:00 am and 07:28 am, 5 subjects receive a single dose of the sublingual formulation of estetrol by administering one estetrol tablet (tablet weight 80 mg; 10 mg estetrol) and 5 subjects receive a single oral dose of the oral estetrol formulation by administering one estetrol tablet (tablet weight 83 mg; 10 mg estetrol), ingested together with 200 ml water. […]
# The estetrol concentration in the collected blood samples is determined by means of HPLC/MS/MS. The concentrations of glucuronided estetrol (D-ring) in the urine samples is also determined with the help of HPLC/MS/MS.
structure (smiles),measurement,setting,value
"C[C@]12CC[C@@H]3c4ccc(O)cc4CC[C@H]3[C@@H]1[C@@H](O)[C@@H](O)[C@@H]2O [estetrol, 1,3,5 (10)-estratrien-3,15α,16α, 17β-tetrol]","Onset of bioavailability, sublingual compared with oral",10 mg estetrol sublingual vs oral,earlier bioavailability
same,"Bioavailability, sublingual compared with oral","10 mg estetrol, 80 mg sublingual tablet (Formulation E composition) vs 83 mg oral tablet",comparable or even superior
